Library screening results

Measurements from “University of Dundee, Small-Polar-MMV Screening Library” (2021), ChEMBL document CHEMBL3988442.

Values are the deposited “Percent Effect”, in %.
The record does not define 0% and 100%; most values in the screen are far below 50% and negative numbers occur (in some assays of this library far below -100).
Compounds were drawn at random from those tested, without regard to their results.
A dash means the value is not listed here; it may have been measured.

A: 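Whole-cell assay for inhibitors of Mycobacterium tuberculosis growth, labelled Cornell in the record; the read-out is not stated. The concentration is filed as 10 mM, unlikely as a test dose, so the dose is not known. The record gives no direction; compounds strong in two other growth screens of this library score well above the rest, so higher reads as stronger inhibition. Size under these conditions: about 53,000 compounds, about 900 of them at 50% or above in at least one test.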
B: 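Assay on Mycobacterium tuberculosis, filed only as a heat shock assay from Cornell; the read-out is not stated. The concentration is filed as 10 mM, unlikely as a test dose, so the dose is not known. The record gives no direction; compounds that gave an IC50 in retests scored well above the rest, so higher reads as stronger inhibition. Of about 69,000 compounds tested this way, about 930 (1.4%) reached 50% or more in at least one test.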

| Compound | A | B |
|---|---|---|
| `CC(C)(C)NC(=O)CCn1ncc2c(Cl)cccc21` | - | -22.33% |
| `Nc1cc(N2CCOCC(Cc3ccc4[nH]ccc4c3)C2)ncn1` (stereo not drawn) | 103.2% | 20.28% |
| `O=C(NCCCN1CCCC1)c1n[nH]c(=O)c2ccccc12` | 8.417% | -12.99% |
| `Cc1nccn1CCCN1CCCC(c2nccn2CC2CCC2)C1` (stereo not drawn) | -23.25% | 8.637% |
| `Cc1cc(CN2CCc3nn(C(C)C)c(=O)cc3C2)no1` | 25.05% | 6.05% |
| `Cl.Cn1nc(C2CCCN(Cc3cccs3)C2)c2nccnc21` (stereo not drawn) | 19.96% | 1.565% |
| `c1ccc(Cc2cncc(C3CCCN3C3CCOCC3)n2)cc1` (stereo not drawn) | 21.94% | 4.889% |
| `CC1CN(CC(=O)NC(=O)NCc2ccccc2)CCO1` (stereo not drawn) | -4.829% | -12.01% |
| `CCOc1ccc(C(=O)N(C)C)cc1NC(=O)c1ccsc1` | 10.52% | -1.975% |
| `Cc1ccc(O)c(C(=O)N2CCCC2c2nncn2CC(C)C)c1` (stereo not drawn) | -26.41% | -13.01% |
| `CC(C)C1CN(c2ncccn2)CCC(=O)N1CC1CC1` (stereo not drawn) | 4.783% | -2.938% |
| `CCOc1ccc(Cl)cc1CNCCCn1ccnc1` | - | -16.06% |
| `Cc1cnc(N2CCc3onc(COc4cccnc4)c3C2)nc1` | -20.46% | 13.89% |
| `O=C(CC1CC1)N1CCC2(CC1)CN(CCn1cccn1)C(=O)CO2` | -28.22% | 5.045% |
| `O=C1N(Cc2cccc(F)c2F)CCCC1(O)CNCc1ccccc1` (stereo not drawn) | - | -34.05% |
| `[H][C@@]12CCCO[C@]1([H])[C@H](NS(C)(=O)=O)CN(C(=O)c1ccoc1C)C2` | -14.33% | 36.4% |
| `Cc1ccc(-n2ncc3c2CCCC3N)cc1C` (stereo not drawn) | -17.39% | -13.04% |
| `COc1nccc(N2CC[C@H](CO)[C@@H](O)C2)c1C#N` | 28.62% | -6.922% |
| `COCc1ccccc1NC(=O)[C@@H]1CCCN1C(=O)c1ccco1` | -20.93% | -4.55% |
| `CCCC(C)CS(=O)(=O)NCc1cccnc1N(C)C` (stereo not drawn) | 14.68% | 11.42% |
| `CCc1nc(C(=O)NCc2ccc(N3CCNC(=O)C3)c(F)c2)c[nH]1` | - | -6.465% |
| `Cc1nc(C)n(CC2CCCCN2CC(=O)Nc2cccnc2)n1` (stereo not drawn) | 11.69% | -16.26% |
| `Cc1nn2c(N3CCCC(C(N)=O)C3)cc(-c3ccccc3)nc2c1C` (stereo not drawn) | 7.722% | 16.04% |
| `CCCN1CCN(C(=O)C(C)n2cc(Br)cn2)CC1` (stereo not drawn) | 4.13% | -21.79% |
| `[H][C@@]12CS(=O)(=O)C[C@]1([H])N(Cc1nc(C)n[nH]1)CCN2CC1CC1` | - | -20.93% |
| `CCn1cnnc1CNC(=O)c1ccc(Cl)cc1I` | -17.93% | -3.543% |
| `CN(C)C(CNC(=O)c1nc(N2CCCC2)ncc1Cl)c1ccco1` (stereo not drawn) | 22.7% | 28.67% |
| `Cc1cnn(CC2CCCN2C(=O)c2c(C)noc2C(C)C)c1` (stereo not drawn) | -26.69% | -15.44% |
| `COc1nsc2nc(C3CCCN3C(C)=O)ccc12` (stereo not drawn) | 51.54% | -15.9% |
| `CNC(=O)c1cccc(NCCOc2ccc(CC#N)cc2)c1C` | - | -21.23% |
| `[H][C@]12CN(C(=O)c3cccnc3)C[C@@]1([H])C(=O)N(CCN1CCCC1)C2` | -1.708% | 4.611% |
| `CSc1c[nH]nc1NS(=O)(=O)c1cc(F)ccc1Cl` | - | -15.81% |
| `O=C(O)C(F)(F)F.[H][C@@]12CN(Cc3csnn3)C[C@]1([H])OCCN2c1ncccn1` | 23.15% | 2.044% |
| `Cc1cc(C)c(CNC(=O)N(C)Cc2ccoc2)c(=O)[nH]1` | -59.16% | -2.268% |
| `CCc1cc(CNC(=O)Nc2cc(F)ccc2N2CCCCC2)on1` | 20% | -16.89% |
| `Cc1csc2cc(C(=O)NC3CC3)cnc12` | 9.652% | 16.38% |
| `CC(Nc1cccc2c1OCCO2)C(=O)Nc1ccc(S(N)(=O)=O)cc1` (stereo not drawn) | -21.07% | -11.64% |
| `COc1cccc2c1OCC(NCCc1cnn(-c3ccccc3)c1)C2` (stereo not drawn) | 37.99% | -28.15% |
| `N#Cc1ccc(SCCOCCO)c(Cl)c1` | -10.29% | -10.43% |
| `COc1ccc(OC)c(C(O)CN2CCN(C3CCCC3)CC2)c1` (stereo not drawn) | 18.91% | 2.339% |
| `CSc1[nH]nc(NC(=O)c2cccs2)c1C#N` | 9.51% | 104.2% |
| `Cc1ccc(C(C(=O)NCc2cc(C)[nH]n2)N(C)C)cc1` (stereo not drawn) | 3.675% | 2.077% |
| `CCc1ccc(CNc2cc(N3CCCC3CO)ncn2)s1` (stereo not drawn) | - | 3.445% |
| `COCCCN1CCCN(C(C)C(=O)Nc2cccc(I)c2)CC1` (stereo not drawn) | 10.76% | -0.491% |
| `[H][C@]12CC[C@]([H])(CN(C(=O)c3ccncc3)C1)N(C(=O)c1cncnc1C)C2` | -12.78% | 7.496% |

Some entries from above, unchanged:

- Cc1csc2cc(C(=O)NC3CC3)cnc12 | A: 9.652%; B: 16.38%
- [H][C@@]12CS(=O)(=O)C[C@]1([H])N(Cc1nc(C)n[nH]1)CCN2CC1CC1 | B: -20.93%